From the supplement of paper PMC12823440, “Inhibitors supercharge kinase turnover through native proteolytic circuits” (Nature, 2025)
Counter-ions that a name gives are not always drawn. Some of the results follow. Hit calls seldom repeat between salt and free forms of one compound.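 Kinases were expressed as nanoluciferase fusions in K562 cells and luminescence was read every 4 h between 2 and 18 h as percent of control, DMSO set to 100% and a positive control to 0%. A time point counts as decreased when the signal drops significantly (2 sigma). The hit call is the authors' own, does not follow from the count of time points alone, and its rule is not shown.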

molecular target: EGFR_L861Q (UniProt P00533); experiment: kinase-Nluc reporter destabilization hit call (1 = scored as downregulated) (binary); higher = compound decreases kinase abundance; conditions: 2.5 µM; K562; 2-18 h

kinase-Nluc reporter destabilization hit call, active:
C[C@H](Nc1cc(-c2cnn(C)c2)cc(Nc2cnccn2)n1)c1ccc(F)cc1 [Ilginatinib hydrochloride] 1

kinase-Nluc reporter destabilization hit call, inactive:
Cc1cccc(/C=N/Nc2cc(N3CCOCC3)nc(OCCc3ccccn3)n2)c1 [Apilimod] 0
Cc1ccc(NC(=O)c2ccc(CN3CCN(C)CC3)cc2)cc1Nc1nc(-c2cccnc2)cs1 [Masitinib (mesylate)] 0
COc1cc2nccc(Oc3ccc(NC(=O)C4(C(=O)Nc5ccc(F)cc5)CC4)cc3)c2cc1OC [Cabozantinib] 0
Cc1cccc(-c2[nH]c(CNc3ccccc3F)nc2-c2ccc3ncnn3c2)n1 [Vactosertib (Hydrochloride)] 0
CC(C)Oc1ccc(-c2nn([C@@H](C)c3oc4ccc(F)cc4c(=O)c3-c3cccc(F)c3)c3ncnc(N)c23)cc1F [Umbralisib (hydrochloride)] 0
CN(C)C(=O)c1cc2cnc(Nc3ccc(N4CCNCC4)cn3)nc2n1C1CCCC1 [Ribociclib succinate hydrate] 0
O=C(Nc1ccncc1)Nc1ccc(-c2nc(N3CCOCC3)nc(N3C4CCC3COC4)n2)cc1 [PKI-179 (hydrochloride)] 0
C=CC(=O)Nc1cc(Nc2nccc(-c3cn(C4CC4)c4ccccc34)n2)c(OC)cc1N(C)CCN(C)C [Almonertinib (hydrochloride)] 0
C=CC(=O)Nc1cc2c(Nc3ccc(F)c(Cl)c3)ncnc2cc1C#CC(C)(C)N1CCN(C)CC1 [AV-412 (free base)] 0
CNC(=O)c1cc(Oc2ccc(NC(=O)Nc3ccc(Cl)c(C(F)(F)F)c3)c(F)c2)ccn1 [Regorafenib] 0

same assay, conditions: 10 µM; K562; 2-18 h

kinase-Nluc reporter destabilization hit call, inactive:
COc1cc2c(-c3cnn4cc(N5CCC(N6CCN(C)CC6)CC5)cnc34)ccnc2cc1F [ALK2-IN-4 (succinate)] 0
C#Cc1cccc(Nc2ncnc3cc(OCCOC)c(OCCO)cc23)c1 [Desmethyl Erlotinib] 0
N=C(N)NC(=O)c1nc(Cl)c(N)nc1N [Amiloride (hydrochloride)] 0
N#CC[C@H](C1CCCC1)n1cc(-c2ncnc3[nH]ccc23)cn1 [Ruxolitinib (phosphate)] 0
CC(=O)c1c(C)c2cnc(Nc3ccc(N4CCNCC4)cn3)nc2n(C2CCCC2)c1=O [Palbociclib (monohydrochloride)] 0
O=C(O)c1ccc2c(c1)nc(Nc1cccc(Cl)c1)c1ccncc12 [Silmitasertib (sodium salt)] 0
COc1ccnc(C[S+]([O-])c2nc3cc(-n4cccc4)ccc3[nH]2)c1C (stereo not drawn) [Ilaprazole (sodium)] 0
CC(C)NC[C@@H](C(=O)N1CCN(c2ncnc3c2[C@H](C)C[C@H]3O)CC1)c1ccc(Cl)cc1 [Ipatasertib (dihydrochloride)] 0
CC(=O)c1c(C)c2cnc(Nc3ccc(N4CCNCC4)cn3)nc2n(C2CCCC2)c1=O [Palbociclib (isethionate)] 0
O=C(c1ccc(F)c(F)c1Nc1ccc(I)cc1F)N1CC(O)([C@@H]2CCCCN2)C1 [Cobimetinib (hemifumarate)] 0
COC(=O)[C@H](CC(C)C)NC(=O)c1ccc(NC[C@@H](N)CS)cc1-c1cccc2ccccc12 0
N#CCNC(=O)c1ccc(-c2ccnc(Nc3ccc(N4CCOCC4)cc3)n2)cc1 [Momelotinib] 0
CC(=O)Nc1cccc(-n2c(=O)n(C3CC3)c(=O)c3c(Nc4ccc(I)cc4F)n(C)c(=O)c(C)c32)c1 [Trametinib] 0
O=C(Nc1cnn2ccc(N3CCC[C@@H]3c3cc(F)ccc3F)nc12)N1CC[C@H](O)C1 [Larotrectinib sulfate] 0
C#Cc1cccc(Nc2ncnc3cc4c(cc23)OCCOCCOCCO4)c1 [Icotinib (Hydrochloride)] 0
COc1cc2nccc(Oc3ccc(NC(=O)C4(C(=O)Nc5ccc(F)cc5)CC4)cc3)c2cc1OC [Cabozantinib (S-malate)] 0
N#CC[C@H](C1CCCC1)n1cc(-c2ncnc3[nH]ccc23)cn1 [Ruxolitinib] 0

Random excerpt: 2 entries already listed.
kinase-Nluc reporter destabilization hit call, inactive:
N#CC[C@H](C1CCCC1)n1cc(-c2ncnc3[nH]ccc23)cn1 [Ruxolitinib] 0
COc1ccnc(C[S+]([O-])c2nc3cc(-n4cccc4)ccc3[nH]2)c1C (stereo not drawn) [Ilaprazole (sodium)] 0
